No constants are given. Whether binding was seen depends on the method and setting. Binding seen in cells or lysates may run through a third protein. Some binding calls cover weakened binding; strength is not graded here.
B1: ELMO1-del1-V5 (amino acid residues 147-727 of ELMO1) (other)
chain: MKPCFGDMLSFTLTAFVELMDHGIVSWDTFSVAFIKKIASFVNKSAIDISILQRSLAILESMVLNSHDLYQKVAQEITIGQLIPHLQGTDQEIQTYTIAVINALFLKAPDERRQEMANILAQKQLRYIILTHVIRAQRAINNEMAHQLYVLQVLTFNLLEDRMMTKMDPQDQAQRDIIFELRRIAFDAESEPNNSSGSMEKRKSMYTRDYKKLGFINHVNPAMDFTQTPPGMLALDNMLYFAKHHQDAYIRIVLENSSREDKHECPFGRSSIELTKMLCEILKVGELPSETCNDFHPMFFTHDRSFEEFFCICIQLLNKTWKEMRATSEDFNKVMQVVKEQVMRALTTKPSSLDQFKSKLQNLSYTEILKIRQSERMNQEDFQSRPILELKEKIQPEILELIKQQRLNRLVEGTCFRKLNARRRQDKFWYCRLSPNHKVLHYGDLEESPQGEVPHDSLQDKLPVADIKAVVTGKDCPHMKEKGALKQNKEVLELAFSILYDSNCQLNFIAPDKHEYCIWTDGLNALLGKDMMSDLTRNDLDTLLSMEIKLRLLDLENIQIPDAPPPIPKEPSNYDFVYDCN
notes: Expressed in 293T cells; also called ELMO1-dell; PcDNA ELMO1-del1-V5; not shown: V5 (and His) tag from the PcDNA V5His vector
B2: ELMO1-del8-V5 (amino acid residues 345-727 of ELMO1) (other)
chain: MEKRKSMYTRDYKKLGFINHVNPAMDFTQTPPGMLALDNMLYFAKHHQDAYIRIVLENSSREDKHECPFGRSSIELTKMLCEILKVGELPSETCNDFHPMFFTHDRSFEEFFCICIQLLNKTWKEMRATSEDFNKVMQVVKEQVMRALTTKPSSLDQFKSKLQNLSYTEILKIRQSERMNQEDFQSRPILELKEKIQPEILELIKQQRLNRLVEGTCFRKLNARRRQDKFWYCRLSPNHKVLHYGDLEESPQGEVPHDSLQDKLPVADIKAVVTGKDCPHMKEKGALKQNKEVLELAFSILYDSNCQLNFIAPDKHEYCIWTDGLNALLGKDMMSDLTRNDLDTLLSMEIKLRLLDLENIQIPDAPPPIPKEPSNYDFVYDCN
notes: Expressed in 293T cells; also called PcDNA ELMO1-del8-V5; not shown: V5 (and His) tag from the PcDNA V5His vector
B3: full length ELMO1 with V5 tag (PcDNA ELMO1-V5) (other)
chain: MPPPSDIVKVAIEWPGAYPKLMEIDQKKPLSAIIKEVCDGWSLANHEYFALQHADSSNFYITEKNRNEIKNGTILRLTTSPAQNAQQLHERIQSSSMDAKLEALKDLASLSRDVTFAQEFINLDGISLLTQMVESGTERYQKLQKIMKPCFGDMLSFTLTAFVELMDHGIVSWDTFSVAFIKKIASFVNKSAIDISILQRSLAILESMVLNSHDLYQKVAQEITIGQLIPHLQGTDQEIQTYTIAVINALFLKAPDERRQEMANILAQKQLRYIILTHVIRAQRAINNEMAHQLYVLQVLTFNLLEDRMMTKMDPQDQAQRDIIFELRRIAFDAESEPNNSSGSMEKRKSMYTRDYKKLGFINHVNPAMDFTQTPPGMLALDNMLYFAKHHQDAYIRIVLENSSREDKHECPFGRSSIELTKMLCEILKVGELPSETCNDFHPMFFTHDRSFEEFFCICIQLLNKTWKEMRATSEDFNKVMQVVKEQVMRALTTKPSSLDQFKSKLQNLSYTEILKIRQSERMNQEDFQSRPILELKEKIQPEILELIKQQRLNRLVEGTCFRKLNARRRQDKFWYCRLSPNHKVLHYGDLEESPQGEVPHDSLQDKLPVADIKAVVTGKDCPHMKEKGALKQNKEVLELAFSILYDSNCQLNFIAPDKHEYCIWTDGLNALLGKDMMSDLTRNDLDTLLSMEIKLRLLDLENIQIPDAPPPIPKEPSNYDFVYDCN
notes: Expressed in 293T cells; also called mouse ELMO1; not shown: V5 (and His) tag from the PcDNA V5-His vector

Amino acid sequences for entries named in this document (tags omitted). A change or cut given only in a name is not applied to a line headed by its entry.
UniProt Q60610: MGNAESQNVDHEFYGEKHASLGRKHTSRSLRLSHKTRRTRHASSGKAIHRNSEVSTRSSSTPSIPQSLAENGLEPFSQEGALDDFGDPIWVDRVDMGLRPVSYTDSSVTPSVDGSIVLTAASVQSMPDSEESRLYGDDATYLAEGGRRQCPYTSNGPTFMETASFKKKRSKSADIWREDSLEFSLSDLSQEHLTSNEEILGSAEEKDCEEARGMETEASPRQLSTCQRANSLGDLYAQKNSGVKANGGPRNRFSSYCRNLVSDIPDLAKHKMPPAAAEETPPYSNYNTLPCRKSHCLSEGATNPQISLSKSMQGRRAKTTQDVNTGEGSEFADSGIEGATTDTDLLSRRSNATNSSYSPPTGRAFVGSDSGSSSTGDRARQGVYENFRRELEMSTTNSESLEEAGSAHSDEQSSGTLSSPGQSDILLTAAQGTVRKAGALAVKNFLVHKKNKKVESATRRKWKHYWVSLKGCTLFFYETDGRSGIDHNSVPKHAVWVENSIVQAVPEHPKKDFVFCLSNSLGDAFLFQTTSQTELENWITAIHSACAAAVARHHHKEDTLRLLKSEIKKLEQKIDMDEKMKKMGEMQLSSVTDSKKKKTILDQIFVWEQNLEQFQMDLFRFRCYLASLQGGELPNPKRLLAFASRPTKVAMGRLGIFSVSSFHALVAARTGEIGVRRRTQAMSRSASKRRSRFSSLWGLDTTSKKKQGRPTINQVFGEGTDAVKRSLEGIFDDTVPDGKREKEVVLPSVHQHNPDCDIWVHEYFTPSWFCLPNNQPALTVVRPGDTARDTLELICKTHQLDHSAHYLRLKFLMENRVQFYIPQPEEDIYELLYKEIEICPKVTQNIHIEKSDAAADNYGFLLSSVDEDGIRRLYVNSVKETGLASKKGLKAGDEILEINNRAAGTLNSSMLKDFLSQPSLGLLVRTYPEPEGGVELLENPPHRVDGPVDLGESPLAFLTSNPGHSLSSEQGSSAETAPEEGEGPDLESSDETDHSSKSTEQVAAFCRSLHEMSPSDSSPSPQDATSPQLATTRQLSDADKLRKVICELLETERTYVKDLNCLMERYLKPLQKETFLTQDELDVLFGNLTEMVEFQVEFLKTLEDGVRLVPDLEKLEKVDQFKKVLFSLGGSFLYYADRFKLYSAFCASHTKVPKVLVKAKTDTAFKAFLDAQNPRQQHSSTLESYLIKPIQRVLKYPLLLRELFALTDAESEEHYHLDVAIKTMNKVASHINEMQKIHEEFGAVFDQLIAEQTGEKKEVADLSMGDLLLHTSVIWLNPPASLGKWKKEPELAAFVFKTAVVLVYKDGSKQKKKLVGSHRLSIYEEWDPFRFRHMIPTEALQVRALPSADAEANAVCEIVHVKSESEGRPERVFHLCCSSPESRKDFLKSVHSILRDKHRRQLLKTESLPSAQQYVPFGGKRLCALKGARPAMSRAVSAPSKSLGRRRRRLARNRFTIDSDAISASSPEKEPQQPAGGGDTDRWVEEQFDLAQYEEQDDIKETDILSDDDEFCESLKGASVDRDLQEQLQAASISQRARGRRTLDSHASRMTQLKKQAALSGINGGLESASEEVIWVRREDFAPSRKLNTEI
UniProt Q8C3J5: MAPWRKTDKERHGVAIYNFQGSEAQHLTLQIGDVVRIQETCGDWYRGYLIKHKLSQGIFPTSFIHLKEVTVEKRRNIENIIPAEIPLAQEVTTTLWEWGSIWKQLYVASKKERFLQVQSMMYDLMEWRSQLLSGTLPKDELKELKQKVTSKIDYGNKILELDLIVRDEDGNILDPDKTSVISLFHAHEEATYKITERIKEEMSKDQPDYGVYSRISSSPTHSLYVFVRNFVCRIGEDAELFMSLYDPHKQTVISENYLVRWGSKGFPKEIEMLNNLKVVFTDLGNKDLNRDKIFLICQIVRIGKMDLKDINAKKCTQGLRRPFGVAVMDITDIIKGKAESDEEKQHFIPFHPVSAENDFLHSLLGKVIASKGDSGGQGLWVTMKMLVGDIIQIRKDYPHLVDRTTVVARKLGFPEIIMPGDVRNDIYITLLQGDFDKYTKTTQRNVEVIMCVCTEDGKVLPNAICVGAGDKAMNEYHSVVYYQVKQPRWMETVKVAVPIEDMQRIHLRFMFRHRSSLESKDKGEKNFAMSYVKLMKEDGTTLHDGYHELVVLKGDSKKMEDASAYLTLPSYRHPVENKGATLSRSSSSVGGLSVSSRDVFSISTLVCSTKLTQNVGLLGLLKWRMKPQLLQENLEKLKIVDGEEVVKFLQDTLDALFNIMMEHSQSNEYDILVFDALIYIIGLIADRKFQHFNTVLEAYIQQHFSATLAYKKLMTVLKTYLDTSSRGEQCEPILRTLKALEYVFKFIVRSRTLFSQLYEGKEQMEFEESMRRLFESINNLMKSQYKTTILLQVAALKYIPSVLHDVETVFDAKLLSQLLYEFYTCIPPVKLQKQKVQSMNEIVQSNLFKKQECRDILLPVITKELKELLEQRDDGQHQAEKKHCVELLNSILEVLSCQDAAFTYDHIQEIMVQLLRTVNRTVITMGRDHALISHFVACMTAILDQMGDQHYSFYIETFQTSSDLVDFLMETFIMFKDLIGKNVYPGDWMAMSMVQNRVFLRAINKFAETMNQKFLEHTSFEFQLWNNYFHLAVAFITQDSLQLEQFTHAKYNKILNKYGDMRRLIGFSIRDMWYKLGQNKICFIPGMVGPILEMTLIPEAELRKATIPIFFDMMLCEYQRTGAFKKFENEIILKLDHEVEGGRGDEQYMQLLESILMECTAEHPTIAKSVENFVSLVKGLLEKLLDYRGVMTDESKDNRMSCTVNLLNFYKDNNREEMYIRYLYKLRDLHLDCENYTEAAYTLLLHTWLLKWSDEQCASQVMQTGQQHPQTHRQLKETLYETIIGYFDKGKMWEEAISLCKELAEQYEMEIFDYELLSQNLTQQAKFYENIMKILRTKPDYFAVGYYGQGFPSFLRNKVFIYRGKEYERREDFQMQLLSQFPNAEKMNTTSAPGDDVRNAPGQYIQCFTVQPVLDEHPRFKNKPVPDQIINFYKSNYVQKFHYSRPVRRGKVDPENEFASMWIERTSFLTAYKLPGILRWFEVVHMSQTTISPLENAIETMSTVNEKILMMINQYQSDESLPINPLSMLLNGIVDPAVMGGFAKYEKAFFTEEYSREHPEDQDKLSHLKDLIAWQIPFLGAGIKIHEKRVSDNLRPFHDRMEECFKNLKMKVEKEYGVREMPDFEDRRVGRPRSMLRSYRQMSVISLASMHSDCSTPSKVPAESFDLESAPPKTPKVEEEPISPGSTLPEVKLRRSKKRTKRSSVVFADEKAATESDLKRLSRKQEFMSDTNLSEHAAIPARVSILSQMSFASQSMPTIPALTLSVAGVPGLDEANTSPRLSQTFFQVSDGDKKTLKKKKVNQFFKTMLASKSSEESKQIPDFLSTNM

Experiments:
[1] = target: full length ELMO1 with V5 tag (PcDNA ELMO1-V5) (mouse) (UniProt Q8BPU7); experiment: co-immunoprecipitation from 293T cells: anti-HA IP, anti-V5 Western blot
[2] = target: Tiam1 with HA tag at its C terminus (PCI Tiam1-HA) (mouse) (UniProt Q60610); experiment: as above
[3] = target: full length ELMO1 with V5 tag (PcDNA ELMO1-V5) (mouse) (UniProt Q8BPU7); experiment: co-immunoprecipitation and Western blot, 293T cells (figure legend)
[4] = target: full length ELMO1 with V5 tag (PcDNA ELMO1-V5) (mouse) (UniProt Q8BPU7); experiment: summary of the co-immunoprecipitation experiments
[5] = target: full length DOCK2 with HA tag at the C terminus (PcDNA DOCK2-HA) (mouse) (UniProt Q8C3J5); experiment: co-immunoprecipitation from 293T cells: anti-HA IP, anti-V5 Western blot
[6] = target: full length DOCK2 with HA tag at the C terminus (PcDNA DOCK2-HA) (mouse) (UniProt Q8C3J5); experiment: co-immunoprecipitation and Western blot, 293T cells (figure legend)
[7] = target: Tiam1 with HA tag at its C terminus (PCI Tiam1-HA) (mouse) (UniProt Q60610); experiment: as above
[8] = target: Tiam1 with HA tag at its C terminus (PCI Tiam1-HA) (mouse) (UniProt Q60610); experiment: summary of the co-immunoprecipitation experiments

| Molecule | binding [1] | binding [5] | other results |
| --- | --- | --- | --- |
| DOCK2 SH3 mutant L27E-HA (from UniProt Q8C3J5 1-1828) | binds |  |  |
| DOCK2 N-HA (amino acid residue 1-502 of DOCK2, HA tag at the C terminus) (from UniProt Q8C3J5 1-502) | binds |  |  |
| ELMO1-delPH-V5 (amino acid residues 1-565 and 695-727 of ELMO1) (from UniProt Q8BPU7 1-727) |  |  | binding [2]: binds |
| DOCK2ΔC-HA (amino acid residue 1-1311 of DOCK2, HA tag at the C terminus) (from UniProt Q8C3J5 1-1311) | binds |  |  |
| full length DOCK2 with HA tag at the C terminus (PcDNA DOCK2-HA) (from UniProt Q8C3J5 1-1828) | binds |  | binding [3]: binds; binding [4]: binds |
| B1 |  | binds |  |
| B2 |  | binds |  |
| B3 |  | binds | binding [6]: binds; binding [7]: binds; binding [2]: binds; binding [8]: binds |

— patent US20060234294A1 (JAPAN SCIENCE AND TECHNOLOGY AGENCY, published 2006)
